Source: paper PMC11446702
These are yes or no findings as the source states them, for the method shown. Binding seen in cells or lysates may run through a third protein. Some results given as binding are weak or reduced against the parent protein; the word gives no strength.

Amino acid sequences for entries named in this document (tags omitted).
UniProt Q9Y2Y9: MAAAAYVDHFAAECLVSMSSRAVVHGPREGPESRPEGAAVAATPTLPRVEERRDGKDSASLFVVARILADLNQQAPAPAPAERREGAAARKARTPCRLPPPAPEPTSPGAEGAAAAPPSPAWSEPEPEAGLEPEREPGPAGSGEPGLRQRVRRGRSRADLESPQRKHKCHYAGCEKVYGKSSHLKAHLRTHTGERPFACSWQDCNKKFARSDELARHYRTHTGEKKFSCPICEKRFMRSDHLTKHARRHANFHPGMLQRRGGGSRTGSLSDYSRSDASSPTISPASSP
UniProt Q969H0: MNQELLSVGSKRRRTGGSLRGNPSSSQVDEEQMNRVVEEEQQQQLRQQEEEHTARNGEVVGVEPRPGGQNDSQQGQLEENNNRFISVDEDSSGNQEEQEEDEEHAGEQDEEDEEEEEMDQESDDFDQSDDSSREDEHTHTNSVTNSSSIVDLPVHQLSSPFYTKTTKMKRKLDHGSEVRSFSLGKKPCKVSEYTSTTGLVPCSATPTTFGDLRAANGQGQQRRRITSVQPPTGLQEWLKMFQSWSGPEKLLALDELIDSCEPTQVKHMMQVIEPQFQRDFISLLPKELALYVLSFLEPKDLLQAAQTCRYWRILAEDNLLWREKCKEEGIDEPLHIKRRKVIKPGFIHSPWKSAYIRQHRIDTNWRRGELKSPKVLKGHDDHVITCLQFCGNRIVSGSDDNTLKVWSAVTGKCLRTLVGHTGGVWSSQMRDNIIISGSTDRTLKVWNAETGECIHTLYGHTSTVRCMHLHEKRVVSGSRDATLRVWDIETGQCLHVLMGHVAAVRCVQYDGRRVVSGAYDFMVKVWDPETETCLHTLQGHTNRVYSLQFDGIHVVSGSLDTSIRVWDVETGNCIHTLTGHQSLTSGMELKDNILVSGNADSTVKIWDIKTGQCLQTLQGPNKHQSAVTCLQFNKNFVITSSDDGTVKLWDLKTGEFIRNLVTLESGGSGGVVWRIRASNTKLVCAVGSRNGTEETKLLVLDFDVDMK

Biological target: Krüppel-like factor 13 (KLF13) (human (endogenous in HEK293T)) (UniProt Q9Y2Y9)
Test: co-IP; HEK293T cells treated with DEX 50 μM for 24 h; co-immunoprecipitation using KLF13 or FBXW7, immunoblot of indicated proteins

binding: binds
Substance: F-Box and WD repeat domain containing 7 (FBXW7) (from UniProt Q969H0 1-707)
